The values below are quoted from earlier work in article PMC11003496 (Journal of Enzyme Inhibition and Medicinal Chemistry, 2023).

SMILES strings stand for the structures.

The subject of the data set is MCF7 human breast adenocarcinoma cell line. The settings on record: read-out: MCF-7 IC50; cited from earlier work.

Take `CC/C(=C(\c1ccccc1)c1ccc(OCCN(C)C)cc1)c1ccccc1` [Tamoxifen, tamoxifen]: the IC50 is 27.9 µM.
